These are yes or no findings as the source states them, for the method shown. Some results given as binding are weak or reduced against the parent protein; the word gives no strength. Sequences can lack the tags named with a protein.
Biological target: T1, Dab2 myosin interacting region (MIR) with C-terminal eGFP (human) (UniProt P98082)
T1 sequence: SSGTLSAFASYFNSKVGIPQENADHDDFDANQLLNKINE
Experiment: single-molecule TIRF motility assay (two-colour imaging, spot intensity); Dab2-MIR-GFP + Cy3-myosin VI complex at 50 pM on biotinylated F-actin with 2 mM ATP; 10 Hz; Cy3 spot intensity and run length from kymographs; both purified

binding: binds weakly
B1: Cy3-labeled full-length myosin VI (natural protein, human, UniProt Q9UM54 1-1294, looked up)
chain: MEDGKPVWAPHPTDGFQMGNIVDIGPDSLTIEPLNQKGKTFLALINQVFPAEEDSKKDVEDNCSLMYLNEATLLHNIKVRYSKDRIYTYVANILIAVNPYFDIPKIYSSEAIKSYQGKSLGTRPPHVFAIADKAFRDMKVLKMSQSIIVSGESGAGKTENTKFVLRYLTESYGTGQDIDDRIVEANPLLEAFGNAKTVRNNNSSRFGKFVEIHFNEKSSVVGGFVSHYLLEKSRICVQGKEERNYHIFYRLCAGASEDIREKLHLSSPDNFRYLNRGCTRYFANKETDKQILQNRKSPEYLKAGSMKDPLLDDHGDFIRMCTAMKKIGLDDEEKLDLFRVVAGVLHLGNIDFEEAGSTSGGCNLKNKSAQSLEYCAELLGLDQDDLRVSLTTRVMLTTAGGTKGTVIKVPLKVEQANNARDALAKTVYSHLFDHVVNRVNQCFPFETSSYFIGVLDIAGFEYFEHNSFEQFCINYCNEKLQQFFNERILKEEQELYQKEGLGVNEVHYVDNQDCIDLIEAKLVGILDILDEENRLPQPSDQHFTSAVHQKHKDHFRLTIPRKSKLAVHRNIRDDEGFIIRHFAGAVCYETTQFVEKNNDALHMSLESLICESRDKFIRELFESSTNNNKDTKQKAGKLSFISVGNKFKTQLNLLLDKLRSTGASFIRCIKPNLKMTSHHFEGAQILSQLQCSGMVSVLDLMQGGYPSRASFHELYNMYKKYMPDKLARLDPRLFCKALFKALGLNENDYKFGLTKVFFRPGKFAEFDQIMKSDPDHLAELVKRVNHWLTCSRWKKVQWCSLSVIKLKNKIKYRAEACIKMQKTIRMWLCKRRHKPRIDGLVKVGTLKKRLDKFNEVVSVLKDGKPEMNKQIKNLEISIDTLMAKIKSTMMTQEQIQKEYDALVKSSEELLSALQKKKQQEEEAERLRRIQEEMEKERKRREEDEKRRRKEEEERRMKLEMEAKRKQEEEERKKREDDEKRIQAEVEAQLARQKEEESQQQAVLEQERRDRELALRIAQSEAELISDEAQADLALRRSLDSYPVSKNDGTRPKMTPEQMAKEMSEFLSRGPAVLATKAAAGTKKYDLSKWKYAELRDTINTSCDIELLAACREEFHRRLKVYHAWKSKNKKRNTETEQRAPKSVTDYDFAPFLNNSPQQNPAAQIPARQREIEMNRQQRFFRIPFIRPADQYKDPQSKKKGWWYAHFDGPWIARQMELHPDKPPILLVAGKDDMEMCELNLEETGLTRKRGAEILPRQFEEIWERCGGIQYLQNAIESRQARPTYATAMLQSLLK
modifications: Cy3 label
notes: Myosin VI, human, the isoform containing both the long insert (LI) and short insert (SI); probably Myosin VI FL-SNAP (C-terminal SNAP, FLAG and 6X-His tags); Assay buffers held 10 uM calmodulin; The surface gliding assays used dark myosin VI FL-FLAG; also called Cy3-myosin VI; myosin VI FL
